Here are results for one molecule from ChEMBL document CHEMBL1629460, “Image-based high-throughput drug screening targeting the intracellular stage of Trypanosoma cruzi, the agent of Chagas' disease” (Antimicrob Agents Chemother, 2010).

Experiment [1] can be described thus: Cytotoxicity against BESM cells after 88 hrs by HTS assay. The format is ADME, cell-based. Conditions: Bos taurus.
The nature of experiment [2]: Selectivity window, ratio of EC50 for BESM cells to EC50 for Trypanosoma cruzi amastigotes infected in BESM cells. More on the design: reference not given here.
The next experiment concerns Trypanosoma cruzi. Briefly: Antitrypanosomal activity against Trypanosoma cruzi amastigotes infected in BESM cells measured after 88 hrs postinfection by HTS assay. The format is functional, organism-based.

SMILES strings stand for the structures.

Consider `CCCCc1oc2ccccc2c1C(=O)c1cc(I)c(OCCN(CC)CC)c(I)c1` [AMIODARONE], for which the EC50 (as a rule, the concentration that produces a half-maximal response) in experiment [1] worked out at 36 µM; with Trypanosoma cruzi, 0.8 µM. In experiment [2], the “Ratio EC50” value stood at 45.
